This is one part of the list. These are further read-outs of the screen, such as a control signal, another cell line or another target. No call is given for them. Most of these compounds were active or inconclusive in the main read-out, so they are no random draw. The note in brackets gives the kind of curve behind each potency; many fits are weak.
Assay: qHTS Assay for Lipid Storage Modulators in Drosophila S3 Cells;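 on cell number change: cells counted by Cell Tracker Red CMTPX staining in the red channel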
Details: BODIPY lipid droplet fluorescence, 18-24 h; for cell number change: measured here: cell count max response, cells fed with added oleic acid
Summary of the method: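 Drosophila S3 cells loaded with oleic acid (400 uM, as added) and compounds at several concentrations; lipid droplets imaged by 488-nm laser-scanning cytometry, 500–530 nm intensity and object ratio to cell channel. Percent activity normalized to 20 uM Triacsin C.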

[1] = measured here: lipid fluorescence (Fed channel) AC50, cells fed with added oleic acid
[2] = measured here: cell number channel AC50, cells fed with added oleic acid

## COc1ccc(S(=O)(=O)N2CCC(C(N)=O)(N3CCCCC3)CC2)cc1OC
  cell number change: 7.14%
[1]
  AC50: 29.1 µM [rising, partial curve, poor fit]

## O=C(NCCCN1CCCC1)c1ccc(CS(=O)(=O)c2ccc(Cl)cc2)o1
  cell number change: 3.99%
[1]
  AC50: 0.103 µM [rising, partial curve, poor fit]

## O=C(NCCc1ccc(Cl)cc1)c1ccc(NC2=NC3CS(=O)(=O)CC3S2)cc1 (stereo not given)
  cell number change: 32.9%
[2]
  AC50: 23.1 µM [rising, single point]

## O=C(N/N=C\c1c(O)ccc2ccccc12)c1ccc(O)cc1
  cell number change: -4.66%
[1]
  AC50: 14.6 µM [falling, single point]

## O=C1CCC(C(=O)N2CCCC2)CN1Cc1cccc(C(F)(F)F)c1 (stereo not given)
  cell number change: 11.4%
[1]
  AC50: 29.1 µM [falling, single point]

## Cc1ccc(S(=O)(=O)NCCC(=O)OCC(=O)Nc2cccc(Cl)c2)cc1
  cell number change: -0.842%
[1]
  AC50: 25.9 µM [rising, partial curve]

## CC1CN(C(=O)c2ccc(CNS(=O)(=O)c3cccc(Cl)c3)cc2)CC(C)O1 (stereo not given)
  cell number change: -23.5%
[1]
  AC50: 18.4 µM [falling, single point]

## COCCN1CC(C(=O)NCc2ncccc2C)CCC1=O (stereo not given)
  cell number change: 2.93%
[1]
  AC50: 0.00461 µM [falling, full curve, poor fit]

## CCN(CC)c1ccc(S(=O)(=O)N2CCOCC2)cc1NC(=O)Cn1nc(C)c([N+](=O)[O-])c1C
  cell number change: 31.2%
[2]
  AC50: 29.1 µM [rising, single point]
[1]
  AC50: 23.1 µM [rising, partial curve]

## COc1ccc(CNC(=O)c2ccc(CS(=O)Cc3ccc(Cl)cc3)o2)cc1 (stereo not given)
  cell number change: -11.8%

## CCOC(=O)N1CCN(C(=O)c2ccc3nc(SCc4ccc(F)cc4)n(C)c3c2)CC1
  cell number change: 0.575%

## O=C(NCCc1c[nH]c2ccccc12)c1ccco1
  cell number change: -3.88%

## Cc1ccccc1NC(=S)N(Cc1ccccc1)Cc1cccs1
  cell number change: -12.3%
[2]
  AC50: 6.51 µM [rising, single point]

## Cc1ccc2cc(CN(CCc3ccccc3)C(=S)NCCCN(C)C)c(=O)[nH]c2c1
  cell number change: -10.9%
[1]
  AC50: 32.6 µM [falling, single point]

## Cc1ccccc1Nc1nc(N)nc(COC(=O)c2ccc([N+](=O)[O-])o2)n1
  cell number change: -4.06%
[1]
  AC50: 1.84 µM [rising, partial curve, poor fit]

## Cc1cc(C)nc(-n2cc(C(=O)c3cc(F)ccc3O)cn2)n1
  cell number change: -33.4%
[1]
  AC50: 11.6 µM [rising, partial curve, poor fit]

## Cn1c(N)c(C(=O)COC(=O)/C=C/c2cccc(F)c2)c(=O)n(C)c1=O
  cell number change: 6.05%
[1]
  AC50: 3.26 µM [falling, partial curve]

## CN(C)C(CNc1ccc(C(F)(F)F)cc1[N+](=O)[O-])c1ccccc1 (stereo not given)
  cell number change: 23.1%
[1]
  AC50: 18.4 µM [rising, single point]

## CCc1nc(-c2ccc(OC)c(OC)c2)cc2cc(OC)c(OC)cc12
  cell number change: 1.47%
[1]
  AC50: 0.58 µM [rising, single point]

## Cn1c(=O)c2c(nc(NC(Cc3ccccc3)C(=O)O)n2Cc2ccccc2)n(C)c1=O (stereo not given)
  cell number change: 7.63%

## CC1=C(C(=O)Nc2cccc(C(=O)N3CCN(c4cccc(C(F)(F)F)c4)CC3)c2)SCCO1
[2]
  AC50: 6.51 µM [falling, single point]

## COC(=O)c1c(NC(=O)c2ccco2)sc2c1CCN(C(C)=O)C2
[1]
  AC50: 2.59 µM [falling, partial curve]

## O=C(Cc1ccc(F)cc1)Nc1cccc(-c2cn3c(n2)SCC3)c1
  cell number change: 6.15%
[2]
  AC50: 2.91 µM [falling, single point]

## CCCCN(C)C(=O)c1nc2ccccn2c1CNC1CCC1
  cell number change: 42.3%
[2]
  AC50: 5.17 µM [rising, full curve]

## CCN(c1ccccc1)S(=O)(=O)c1ccc(Oc2ccc([N+](=O)[O-])cc2)nc1
[2]
  AC50: 2.31 µM [rising, partial curve, poor fit]
[1]
  AC50: 2.31 µM [rising, partial curve, poor fit]

## O=C(COC(=O)c1cc(S(=O)(=O)NCc2ccccc2)ccc1O)NCc1ccccc1
  cell number change: -33.7%
[2]
  AC50: 29.1 µM [falling, single point]
[1]
  AC50: 29.1 µM [falling, single point]

## O=C(Nc1nccs1)C1CC(=O)N(CCc2ccc(F)cc2)C1 (stereo not given)
  cell number change: 18.8%

## CCN1c2ccccc2S(=O)(=O)c2ccccc21
[1]
  AC50: 29.1 µM [falling, single point]

## Cc1cccc(-c2nnc(SCC(=O)Nc3cc(C)on3)n2C)c1
  cell number change: 51.3%

## C=CCn1c(SCn2nnc3ccccc3c2=O)nnc1-c1ccc(Br)cc1
  cell number change: 3.51%
[1]
  AC50: 0.517 µM [rising, full curve]

## COC(=O)c1c(NC(=O)c2c(Cl)cnn2C)sc(C)c1C
  cell number change: -12.8%
[2]
  AC50: 0.731 µM [falling, single point]
[1]
  AC50: 0.651 µM [falling, single point]

## COc1cc([N+](=O)[O-])ccc1NC(=S)NNC(=O)c1ccc2c(c1)OCO2
  cell number change: 19.2%
[1]
  AC50: 2.91 µM [rising, single point]

## O=c1c(O)c(-c2ccc3c(c2)OCO3)oc2ccccc12
  cell number change: -3.61%
[1]
  AC50: 5.17 µM [falling, single point]

## CCCCn1c(=N)n(CC(=O)C(C)(C)C)c2ccccc21
  cell number change: -22.1%
[1]
  AC50: 0.00517 µM [rising, full curve, poor fit]

## CCOC(=O)C1CC(c2ccccc2)=NNC1=O (stereo not given)
  cell number change: 8.82%

## COc1ccc(C(=O)COC(=O)c2ccc(Cl)nc2)cc1OC
  cell number change: -28.1%

## CNc1nc2c(c(=O)[nH]c(=O)n2C)n1CCOC
  cell number change: 4.02%
[1]
  AC50: 3.66 µM [falling, single point]

## CCOc1ccc(C(C)=O)cc1COC(=O)CNC(=O)c1cccs1
  cell number change: 23.4%
[1]
  AC50: 14.6 µM [rising, single point]

## CCOc1ccc(NC(=O)N(CCCN2CCOCC2)Cc2cccnc2)cc1
  cell number change: 5.83%
[1]
  AC50: 0.00411 µM [rising, full curve, poor fit]

## COc1ccc(C(CNC(=O)c2ccc(S(=O)(=O)N(C)C)cc2)N2CCCCC2)cc1 (stereo not given)
  cell number change: -48.1%
[2]
  AC50: 0.103 µM [falling, full curve, poor fit]
[1]
  AC50: 18.4 µM [falling, partial curve]

## O=c1c2ccccc2nc(SCc2cc([N+](=O)[O-])cc3c2OCOC3)n1-c1ccccc1
[1]
  AC50: 0.164 µM [falling, full curve, poor fit]

## CCN1CCN(c2nc(Nc3ccc(NC(C)=O)cc3)nc(Nc3ccc(NC(C)=O)cc3)n2)CC1
  cell number change: 1.12%
[1]
  AC50: 0.0058 µM [falling, full curve, poor fit]

## COc1cccc(N2CC(C(=O)Nc3nnc(SCC(=O)Nc4ccc(NC(C)=O)cc4)s3)CC2=O)c1 (stereo not given)
  cell number change: -9.35%
[1]
  AC50: 29.1 µM [rising, single point]

## CCn1c(=O)cc(OCC(=O)Nc2ccc3c(c2)OCCO3)c2ccccc21
[2]
  AC50: 0.259 µM [rising, partial curve, poor fit]

## CC(C)CC(=O)Nc1nnc(SCC(=O)NCc2ccco2)s1
  cell number change: 9.79%

## O=C(Nc1nc(-c2ccccn2)cs1)c1ccc(F)c(S(=O)(=O)N2CCOCC2)c1
  cell number change: 2.9%
[2]
  AC50: 0.517 µM [rising, single point]
[1]
  AC50: 14.6 µM [falling, partial curve]

## O=C1OC(N2C(=O)CC[C@H]2C(=O)NCC2CCCO2)c2ccccc21 (stereo not given in full)
  cell number change: 21.7%
[2]
  AC50: 0.082 µM [rising, full curve, poor fit]
[1]
  AC50: 29.1 µM [rising, single point]

## CN1C(=O)CC(N2CCN(Cc3ccc(Cl)cc3)CC2)C1=O (stereo not given)
  cell number change: 49.6%
[2]
  AC50: 14.6 µM [rising, partial curve, poor fit]
[1]
  AC50: 0.366 µM [rising, partial curve, poor fit]

## CC(=O)NCc1nnc2c3ccccc3c(-c3ccccc3)nn12
  cell number change: 4.33%
[1]
  AC50: 1.12 µM [rising, partial curve]

## CCOc1ccc(NC(=O)CN2CCN(CC(=O)c3ccc(OC)c(OC)c3)CC2)cc1
  cell number change: 20.7%

## O=C(CCCC(=O)N1CCN(c2cccc(Cl)c2)CC1)c1ccccc1
  cell number change: 23.6%
[1]
  AC50: 29.1 µM [falling, single point]

## CCCCOc1ccc(Cn2c(=O)oc3ccccc32)cc1
[1]
  AC50: 6.51 µM [rising, single point]

## CCc1noc(C)c1C(=O)N(C)CC(=O)Nc1cccc(OC)c1
  cell number change: -11.1%
[1]
  AC50: 4.61 µM [rising, partial curve, poor fit]

## COc1ccc(CCC(=O)Nc2nc(-c3ccncc3)cs2)cc1
[2]
  AC50: 6.51 µM [rising, single point]

## CCCn1nc(C(=O)Nc2cc(C(=O)OC)ccc2C)c2ccccc2c1=O
  cell number change: 6.86%

## Cc1cc(=O)oc(C)c1C(=O)O
  cell number change: -25.8%

## COc1ccc(-n2c(O)c(C=NC3CC3)c(=O)[nH]c2=O)cc1
  cell number change: 2.14%
[1]
  AC50: 6.51 µM [rising, single point]

## COc1ccc(CCC(=O)Nc2ncc(C)s2)cc1OC
  cell number change: -11.1%
[1]
  AC50: 0.58 µM [falling, single point]

## COc1ccc(CCNC(=O)Cn2c(=O)n(-c3ccc(C)c(F)c3)c(=O)c3sccc32)cc1OC
[2]
  AC50: 6.51 µM [rising, single point]

## CC(C)(C)OC(=O)N1CCC(CNC(=O)c2cccs2)CC1
  cell number change: -56%
[1]
  AC50: 5.8 µM [falling, partial curve]

## Cc1cc(C)c2oc(=O)cc(CN3CCN(Cc4ccccc4)CC3)c2c1
  cell number change: 47.2%
[2]
  AC50: 29.1 µM [rising, single point]

## COC(=O)c1ccc(CSc2nc3sc(C)c(C)c3c(=O)[nH]2)cc1
  cell number change: -23.8%

From PubChem BioAssay AID2685 (National Center for Advancing Translational Sciences (NCATS), 2010)
